According to patent publication US8524454 (RESEARCH FOUNDATION OF STATE UNIVERSITY OF NEW YORK, dated 2013):
Results are given in words; binding and its absence hold for the method and conditions named. A result given as binding can be weak or reduced; the word gives no strength.

Tests used:
[1] = target: transcobalamin receptor (TCblR) purified from human placenta (human); experiment: radiolabeled TC-Cbl binding assay (FIG. 6A)
[2] = target: transcobalamin receptor (TCblR) purified from human placenta (human); experiment: aminopropyl Cbl-TC affinity matrix, photo-dissociation, SDS-PAGE (FIG. 2)
[3] = target: transcobalamin receptor (TCblR) purified from human placenta (human); experiment: radiolabeled TC-Cbl binding assay
[4] = target: transcobalamin receptor (TCblR) purified from human placenta (human); experiment: affinity capture of the receptor-TC-Cbl complex from solubilised placental membranes
[5] = target: transcobalamin receptor (TCblR) purified from human placenta (human); experiment: radiolabeled Cbl-TC binding to purified TCblR competed by unlabeled apo-TC (FIG. 12)

| binding [1] | binding [2] | binding [3] | binding [4] | binding [5] | Binder |
| --- | --- | --- | --- | --- | --- |
| binds | binds | binds | binds | – | holo-transcobalamin (recombinant human TC saturated with cobalamin) (ligand, UniProt P20062 19-427, looked up, also called TC-Cbl; holo TC) EMCEIPEMDSHLVEKLGQHLLPWMDRLSLEHLNPSIYVGLRLSSLQAGTKEDLYLHSLKLGYQQCLLGSAFSEDDGDCQGKPSMGQLALYLLALRANCEFVRGHKGDRLVSQLKWFLEDEKRAIGHDHKGHPHTSYYQYGLGILALCLHQKRVHDSVVDKLLYAVEPFHQGHHSVDTAAMAGLAFTCLKRSNFNPGRRQRITMAIRTVREEILKAQTPEGHFGNVYSTPLALQFLMTSPMRGAELGTACLKARVALLASLQDGAFQNALMISQLLPVLNHKTYIDLIFPDCLAPRVMLEPAAETIPQTQEIISVTLQVLSLLPPYRQSISVLAGSTVEDVLKKAHELGGFTYETQASLSGPYLTSVMGKAAGEREFWQLLRDPNTPLLQGIADYRPKDGETIELRLVSW |
| – | – | – | – | binds | apo-transcobalamin (recombinant TC without cobalamin) (ligand, human, UniProt P20062 19-427, looked up) EMCEIPEMDSHLVEKLGQHLLPWMDRLSLEHLNPSIYVGLRLSSLQAGTKEDLYLHSLKLGYQQCLLGSAFSEDDGDCQGKPSMGQLALYLLALRANCEFVRGHKGDRLVSQLKWFLEDEKRAIGHDHKGHPHTSYYQYGLGILALCLHQKRVHDSVVDKLLYAVEPFHQGHHSVDTAAMAGLAFTCLKRSNFNPGRRQRITMAIRTVREEILKAQTPEGHFGNVYSTPLALQFLMTSPMRGAELGTACLKARVALLASLQDGAFQNALMISQLLPVLNHKTYIDLIFPDCLAPRVMLEPAAETIPQTQEIISVTLQVLSLLPPYRQSISVLAGSTVEDVLKKAHELGGFTYETQASLSGPYLTSVMGKAAGEREFWQLLRDPNTPLLQGIADYRPKDGETIELRLVSW |
